Data source: PubChem BioAssay AID1508597 (Cure First, 2020)
Test: 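Genes whose silencing sensitises or protects ovarian cancer cells against rucaparib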 (primary screen). Cell system: human ovarian carcinoma lines grown from tumours: OCI-P5x (papillary serous) and OCI-C5x (clear cell). Knock-down reagent: siRNA pool against human genes, 1.25 pmol siRNA per well. Timing: 72 h or 96 h, depending on the cell culture. Conditions: rucaparib 20 µM (about IC30) or vehicle, present until read-out. Rucaparib or vehicle: Vehicle. Cell line: OCI-P5x (serous). Detection: 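Luminescent ATP-based viability assay read 72 or 96 h after transfection, depending on culture, given as normalised percent viability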. Reading the numbers: viability, normalised: higher = more viable cells remaining. Hit rule: 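a well counts as a hit if its normalised viability is under 80 percent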. Meaning of the calls: active = viability under 80%; inactive = viability 80% or more.
Shown is a random part of the about 2,100 reagents, under one of the conditions tested. 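Calls flag viability under 80% in either arm, not effects specific to rucaparib; the reference for percent is not stated.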 Not stated in the record: the 100% reference.

SCML2, technical replicate 1
- viability, normalised (%): 65.3
- Outcome: active

SCML2, technical replicate 2
- viability, normalised (%): 80.7
- Outcome: inactive

SCML2, technical replicate 3
- viability, normalised (%): 78.6
- Outcome: active

FOXS1, technical replicate 1
- viability, normalised (%): 82.7
- Outcome: inactive

FOXS1, technical replicate 2
- viability, normalised (%): 86.8
- Outcome: inactive

FOXS1, technical replicate 3
- viability, normalised (%): 83.7
- Outcome: inactive

RPL3, technical replicate 1
- viability, normalised (%): 48.2
- Outcome: active

RPL3, technical replicate 2
- viability, normalised (%): 43.1
- Outcome: active

RPL3, technical replicate 3
- viability, normalised (%): 46.4
- Outcome: active

PWWP3B, technical replicate 1
- viability, normalised (%): 63.5
- Outcome: active

PWWP3B, technical replicate 2
- viability, normalised (%): 61.4
- Outcome: active

PWWP3B, technical replicate 3
- viability, normalised (%): 71.9
- Outcome: active

TFAM, technical replicate 1
- viability, normalised (%): 74.7
- Outcome: active

TFAM, technical replicate 2
- viability, normalised (%): 76.5
- Outcome: active

TFAM, technical replicate 3
- viability, normalised (%): 70.6
- Outcome: active

2 consecutive records already listed, quoted:
FOXS1, technical replicate 2
- viability, normalised (%): 86.8
- Outcome: inactive

FOXS1, technical replicate 3
- viability, normalised (%): 83.7
- Outcome: inactive

Additional results follow:
RNF2, technical replicate 1
- viability, normalised (%): 68.1
- Outcome: active

RNF2, technical replicate 2
- viability, normalised (%): 74.2
- Outcome: active

RNF2, technical replicate 3
- viability, normalised (%): 108
- Outcome: inactive

CSNK1G2, technical replicate 1
- viability, normalised (%): 69.3
- Outcome: active

CSNK1G2, technical replicate 2
- viability, normalised (%): 82.5
- Outcome: inactive

CSNK1G2, technical replicate 3
- viability, normalised (%): 56.1
- Outcome: active

G6PC1, technical replicate 1
- viability, normalised (%): 53.5
- Outcome: active

G6PC1, technical replicate 2
- viability, normalised (%): 69.8
- Outcome: active

G6PC1, technical replicate 3
- viability, normalised (%): 62.1
- Outcome: active

GDPD1, technical replicate 1
- viability, normalised (%): 73.5
- Outcome: active

GDPD1, technical replicate 2
- viability, normalised (%): 81.8
- Outcome: inactive

GDPD1, technical replicate 3
- viability, normalised (%): 76.3
- Outcome: active

COX6C, technical replicate 1
- viability, normalised (%): 68.7
- Outcome: active

COX6C, technical replicate 2
- viability, normalised (%): 73.5
- Outcome: active

COX6C, technical replicate 3
- viability, normalised (%): 85.7
- Outcome: inactive

EGFR, technical replicate 1
- viability, normalised (%): 94.2
- Outcome: inactive

EGFR, technical replicate 2
- viability, normalised (%): 89.1
- Outcome: inactive

EGFR, technical replicate 3
- viability, normalised (%): 90.4
- Outcome: inactive
